# Results published in PubChem BioAssay AID602313 (National Center for Advancing Translational Sciences (NCATS), 2012).
# The whole screen tested about 390,000 compounds, of which about 760 (0.19%) were called active. The inconclusive results got no clear call from the source; some entries with a clear call stand among them for comparison. Calls follow the shape of the dose curve; as a rule, active = well fitted inhibition curve with a large enough effect; inconclusive = small, poorly fitted or top-dose-only effect; inactive = flat fitted curve, though single readings scatter. Potencies beside an inconclusive call are fits to weak or partial responses and may not hold up.
# Assay: qHTS for Inhibitors of Vif-A3F Interactions: qHTS; also: nearly all actives have a fitted effect of over 65% in size
# Settings: HeLa A3F-eYFP + Vif (tagged APOBEC3F with the HIV-1 protein that degrades it), YFP fluorescence increase; series mostly up to 46.1 µM
# Outline: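 HeLa cells stably expressing A3F-eYFP plus Vif, plated and incubated overnight at 37 deg C, then exposed to compounds overnight at 37 deg C. Blocked degradation read as raised yellow fluorescence (Ex 488/Em 500-530).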
# Potency is read from the fitted curve at half-maximal effect.
row,SMILES,Potency
1,COc1cccc(C(=O)N/N=c2/oc3ccccc3cc2C(N)=O)c1,"inconclusive: 22.4 µM [inhibitor, partial curve, poor fit]"
2,CN(C)c1ccc(C2N(c3ccc(F)cc3)C(=O)C3CCCN32)cc1 (centres undefined),inactive
3,CN(C)CCCOC(=O)c1sc2ccccc2c1Cl,"inconclusive: 3.16 µM [inhibitor, single point]"
4,COc1ccc(C(C(=O)NCC2CCCO2)N(C(=O)CNC(=O)c2ccco2)c2ccccc2)cc1OC (centres undefined),"inconclusive: 3.55 µM [inhibitor, partial curve, poor fit]"
5,N#CC1=C(N)C(C#N)(C#N)[C@H](c2ccoc2)[C@H]2CN(Cc3ccccc3)CC=C12,"inconclusive: 20 µM [inhibitor, single point]"
6,CN(C)c1ccc(S(=O)(=O)N2CCCCC2)cc1NC(=O)CN1C(=O)NC(C)(c2ccccc2)C1=O (centres undefined),"inconclusive: 3.16 µM [inhibitor, single point]"
7,C=CCN1C(=O)/C(=C\C=C2\N(C)c3ccccc3C2(C)C)SC1=S,"inconclusive: 2 µM [inhibitor, full curve, poor fit]"
8,O=S(=O)(Nc1nc2n(n1)C(c1ccccc1)C=C(c1ccc(Cl)cc1)N2)c1ccccc1 (centres undefined),active: 22.4 µM
9,NC(=O)c1ccc2nc(NC(=O)c3ccc(N)cc3)sc2c1,inactive
10,Cc1ccc(S(=O)(=O)N2CCc3cc4c(cc3C2C)OCCCO4)cc1 (centres undefined),inactive
11,O=C(NNC(=O)c1ccc(Br)cc1)c1ccncc1,"inconclusive: 11.2 µM [inhibitor, partial curve, poor fit]"
12,NC(=O)CC(NC(=O)Cc1ccc(Br)cc1)c1ccc(NCc2ccc(F)cc2)c([N+](=O)[O-])c1 (centres undefined),active: 11.2 µM
13,Cc1ccc(NCC(=O)c2ccc(C)cc2)cc1,"inconclusive: 11.2 µM [inhibitor, partial curve, poor fit]"
14,CCCn1nc(C(=O)Nc2nc(-c3ccccn3)cs2)c2ccccc2c1=O,"inconclusive: 2.82 µM [inhibitor, full curve, poor fit]"
15,Cc1ccc2nc(/C(C#N)=C/c3ccc(-c4cccc(Cl)c4)o3)[nH]c2c1,active: 3.16 µM
16,Cc1cc(N2CCOCC2)ccc1/C=C1\NC(=O)N(Cc2ccccc2F)C1=O,"inconclusive: 15.8 µM [inhibitor, partial curve, poor fit]"
17,Cc1ccc(O)c(C(=O)CC(=O)c2ccccc2Cl)c1,"inconclusive: 35.5 µM [inhibitor, single point]"
18,CN1CCc2c(sc3c2C(=O)NC(c2cccc(OC(=O)c4cccs4)c2)N3)C1 (centres undefined),"inconclusive: 35.5 µM [inhibitor, single point]"
19,Cc1ccc(S(=O)(=O)N2CCN(C(=O)CSc3nc4ccccc4c(=O)[nH]3)CC2)cc1,"inconclusive: 25.1 µM [inhibitor, single point]"
20,CC1CCN(S(=O)(=O)c2ccc3nc(-c4ccccn4)cc(C(=O)NCCN(C)Cc4ccccc4)c3c2)CC1,inactive
21,N/C(=N\OC(=O)c1ccc(Cl)cc1Cl)c1ccccn1,"inconclusive: 12.6 µM [inhibitor, single point]"
22,COC(=O)c1ccc(NC(=O)CC2C(=O)N(c3cccc(OC)c3)C(=O)N2Cc2cccc(OC)c2)cc1 (centres undefined),inactive
23,CC1CCCN(S(=O)(=O)c2ccc(C(=O)Nc3nnc(C4CC4)o3)cc2)C1 (centres undefined),"inconclusive: 35.5 µM [inhibitor, single point]"

row,SMILES,Potency
1,CCOc1ccc(CCNC(=O)c2cc3c(-c4cccc(OC)c4)nn(C)c3s2)cc1OCC,inactive
2,Cc1nn2c(-c3cccc(NC(=O)CSc4nc5ccccc5o4)c3)nnc2c2ccccc12,inactive
3,COc1ccc(Br)cc1CN(C)CC(=O)Nc1cccc(S(=O)(=O)N2CCCC2)c1,inactive
4,CN1CCN(C(=S)NC(=O)c2ccc(Cl)cc2)CC1,"inconclusive: 0.355 µM [inhibitor, full curve, poor fit]"
5,CCCSc1cc(NCCOC(=O)CCC)c([N+](=O)[O-])c2nonc12,inactive
6,Cc1oc2cc(O)ccc2c(=O)c1-c1nncn1-c1ccccc1,"inconclusive: 5.01 µM [inhibitor, full curve, poor fit]"
7,CCN1C(=O)/C(=C2\Sc3ccccc3N2CC)OC1=S,"inconclusive: 17.8 µM [inhibitor, single point]"
8,CC(=NNC(=S)N1CCCC1)c1ccccn1,inactive
9,Cc1cc(C)c2c(=O)[nH]c(=O)n(Cc3ccccc3)c2n1,"inconclusive: 17.8 µM [inhibitor, partial curve, poor fit]"
10,COc1cc(Cl)cc(/C=C/c2ccc3cccc(O)c3n2)c1OC,"inconclusive: 35.5 µM [inhibitor, single point]"
11,O=C(Nc1cccc(C(F)(F)F)c1)c1sc(Cl)nc1C(F)(F)F,inactive
12,O=C(Nc1nnc(C2=COCCO2)o1)c1ccc(F)cc1,inactive
13,CC(OC(=O)c1ccc2c(c1)NC(=O)CS2)C(=O)c1ccc(F)cc1 (centres undefined),inactive
14,N#Cc1ccc2c(=O)n(-c3ccccc3)sc2c1,inactive
15,COc1ccc(-c2cn[nH]c2-c2ccc(OCc3ccc(F)cc3)cc2O)cc1OC,inactive
16,O=C(NCCCn1ccnc1)c1cc(-c2ccccc2)on1,"inconclusive: 14.1 µM [inhibitor, single point]"
17,CCOC(=O)NC(=S)c1ccc[nH]1,"inconclusive: 20 µM [inhibitor, single point]"
18,Cc1n[nH]c(C)c1N1C(=O)c2cccc3c(N4CCCCCC4)ccc(c23)C1=O,"inconclusive: 3.16 µM [inhibitor, partial curve, poor fit]"
19,C=C1CC(COc2cc(=O)oc3ccccc23)(c2ccccc2)OC1=O (centres undefined),inactive
20,S=C1NC[C@H](Cc2cccc3ccccc23)N1CC1CCCCC1,"inconclusive: 22.4 µM [inhibitor, single point]"
21,COc1ccc(C(OCC(O)CN(C)C2CCCCC2)c2ccc(OC)cc2)cc1 (centres undefined),"inconclusive: 28.2 µM [inhibitor, single point]"
22,Cc1ccc(-n2ncc3c(NNC(=O)c4ccccc4C)ncnc32)cc1,"inconclusive: 35.5 µM [inhibitor, single point]"
23,Cc1ccc(C)c(NS(=O)(=O)c2ccc3c(c2)Cc2cc(S(=O)(=O)Nc4cc(C)ccc4C)ccc2-3)c1,"inconclusive: 35.5 µM [inhibitor, partial curve, poor fit]"

# Exported tab-delimited: part of the list above.
row	SMILES	Potency
4	CN1CCN(C(=S)NC(=O)c2ccc(Cl)cc2)CC1	inconclusive: 0.355 µM [inhibitor, full curve, poor fit]
18	Cc1n[nH]c(C)c1N1C(=O)c2cccc3c(N4CCCCCC4)ccc(c23)C1=O	inconclusive: 3.16 µM [inhibitor, partial curve, poor fit]

# (cont.)

row,SMILES,Potency
1,O=C(N/N=C/c1ccccc1O)c1ccc2c(c1)OCO2,"inconclusive: 2.51 µM [inhibitor, partial curve, poor fit]"
2,CCc1nnc(N2C(=N)SCC2=O)s1,"inconclusive: 35.5 µM [inhibitor, single point]"
3,COC(=O)c1c(NC(=O)c2ccc(S(=O)(=O)N3CCCCC3C)cc2)sc2c1CCN(C(C)C)C2 (centres undefined),"inconclusive: 35.5 µM [inhibitor, single point]"
4,CCS(=O)(=O)c1ccc(O)c(NC(=O)/C=C/c2ccccc2)c1,inactive
5,COC(=O)CN1C(=O)S/C(=C/c2ccc(N3CCCCC3)o2)C1=O,"inconclusive: 2.51 µM [inhibitor, partial curve, poor fit]"
6,O=C(c1cccc(Cl)c1)N1CCC(c2nc3c(nnn3Cc3ccc(F)cc3F)c(=O)[nH]2)CC1,inactive
7,COc1ccc(OC)c(C2C=C(C34CC5CC(CC(C5)C3)C4)NC(=S)N2)c1 (centres undefined),inactive
8,CCc1cc(C(=O)c2ccc(OC)cc2)c(NC(=O)CN2CCN(C)CC2)s1,"inconclusive: 5.62 µM [inhibitor, single point]"
9,CNC(=S)N/N=C/c1cc(C)ccc1C,"inconclusive: 22.4 µM [inhibitor, partial curve, poor fit]"
10,C=C(C)CCC1(C)NC(=O)N(c2ccccc2)N1 (centres undefined),inactive
11,COc1ccccc1NC(=O)c1sc2nc(Cc3ccccc3)cc(C(F)(F)F)c2c1N,"inconclusive: 35.5 µM [inhibitor, partial curve, poor fit]"
12,S=C(NC1CC1)SCc1ccco1,"inconclusive: 35.5 µM [inhibitor, single point]"
13,COc1cccc(C(=O)CC(C(=O)O)c2ccc(F)cc2)c1 (centres undefined),"inconclusive: 35.5 µM [inhibitor, single point]"
14,NC(=O)NOCc1c(Cl)cccc1Cl,"inconclusive: 5.62 µM [inhibitor, single point]"
15,Cc1ccc(S(=O)(=O)c2cn(C)c3cc(N4CCN(c5ccccc5)CC4)c(F)cc3c2=O)cc1,inactive
16,O=CN(Cc1nc2ccccc2[nH]1)c1ccc(C(=O)O)cc1,"inconclusive: 5.62 µM [inhibitor, single point]"
17,N=C1/C(=C/c2ccc(Br)o2)C(=O)N=C2SC(CC(=O)N3CCCC3)=NN12,"inconclusive: 35.5 µM [inhibitor, single point]"
18,Cc1cccc(C(=O)N(Cc2ccco2)Cc2ccccc2F)c1,inactive
19,CNc1ccc(/C=C(\C#N)C(=O)Nc2ccccn2)cc1[N+](=O)[O-],"inconclusive: 3.55 µM [inhibitor, partial curve, poor fit]"
20,COCCN(C(=O)CSc1n[nH]c(-c2ccc(OC)cc2)n1)c1c(N)n(Cc2ccccc2)c(=O)[nH]c1=O,"inconclusive: 35.5 µM [inhibitor, single point]"
21,S=C(NCc1ccc(Cl)cc1Cl)NC1CCCCC1,inactive
22,CC(C)c1cc(=O)oc2c3c4c(cc12)CCCN4CCC3,"inconclusive: 35.5 µM [inhibitor, single point]"
23,CN(Cc1cccs1)C(=O)CSc1nc(N)cc(N)n1,"inconclusive: 17.8 µM [inhibitor, single point]"
